According to paper PMC9457990:

How the values were obtained:
[1] = molecular target: human serum albumin (HSA) (Homo sapiens) (UniProt P02768); assay: fluorescence beacon displacement; conditions: 250 nM protein; commercial protein; label: 5'-FAM and 3'-BHQ1 on MB-20
myoglobin (Mb) = assay: fluorescence beacon displacement; conditions: 250 nM protein; commercial protein; label: 5'-FAM and 3'-BHQ1 on MB-20

Question: Which results are given for “CCGCCCAAATCCCGAAGGGAAGAGTGTAATGACGTCAAACCAGACACATTACACACGCA / CGCGCGTGTAATGTGTCTGGTTTGAGCGCG [M5-5/MB-20 partial duplex]”?
Answer: binding result [1]: no binding; binding result (myoglobin (Mb)): no binding

A negative result means that nothing was seen under these conditions. For some assays here: For at least one entry, the source does not settle the construct or the ends of the probe.
